Experimental data: patent US20260151391A1, “TREATMENT OF MITOCHONDRIAL DISEASES WITH sGC STIMULATORS” (Tisento Therapeutics Inc., priority 2022, published 2026)
“Also recorded” adds a separate entry of the source. At least one compound was matched to its structure with a doubt left.

How the values were obtained:
[1] = system: normotensive Sprague Dawley rats; assay: Blood pressure effects in normotensive rats following acute oral dose; assay type: in vivo, rat; settings: single oral dose 1, 3, 10 and 30 mg/kg, sodium salt in Milli-Q water
Description: Male, normotensive Sprague Dawley rats were purchased from Charles River Laboratories. These rats have indwelling femoral artery catheters installed. Animals were harnessed to a tether system and attached to pressure transducers to monitor cardiovascular (CV) parameters, specifically mean arterial pressure (MAP) and heart rate (HR). Animals were acclimated to the system overnight and baseline CV parameters collected. The conscious, freely moving rats were then administered a single oral dose of the Compound I-14 (doses generated from the sodium salt of Compound I-14) in Milli-Q water at 1, 3, 10 and 30 mg/kg. A blood sample was collected from each animal through the catheter line at pre-dose and 2 hours post-dose for compound concentration quantification. Hemodynamic measures were recorded for ten hours post-dose. […]
ADInstruments LabChart (v8) was used to monitor and export hemodynamic data. Blood pressure and heart rate were continuously monitored, and data were collected at 1000 data points per second then averaged into 10-minute bins for analysis. Change from baseline MAP (ABMAP) and HR (ABHR) were calculated using the pre-dose baseline averaged over the 1-hr period prior to dosing using Microsoft Excel for Microsoft 365. […]
Statistical analyses were performed in Graphpad Prism (v8). […] Vehicle-adjusted HR (ΔVHR) was calculated in a similar manner to ΔVMAP. […]

cGMP = assay: Concentration of cGMP in rat CSF after a single administration; assay type: in vivo
[2] = system: memory disruption induced by MK-801 in male Long Evans rats; assay: Novel Object Recognition (NOR) test, memory disruption induced by MK-801; assay type: in vivo, rat
Description: In the present study, a memory saving model was used. MK-801 (Dizocilpine), an uncompetitive antagonist of the NMDA receptor was used to cause deficit of recognition memory. sGC stimulators were evaluated for their efficacy to prevent memory impairment induced by MK-801.
Adult male Long-Evans rats (275-299 gram at arrival from Envigo, Indianapolis, IN) were used in this study. Rats were placed in the experimental rooms and assigned unique identification numbers (tail marks). Rats were housed 2 per cage in polycarbonate cages with filter tops and acclimated for at least 7 days prior to testing. Animal room was maintained in a 12/12 h light/dark cycle (lights on at 07.00 EST), 22±1° C. and relative humidity at approximately 50%. Food and water were provided ad libitum. All animals were examined, handled and weighed prior to the study to assure adequate health and to minimize the non-specific stress associated with testing. Each animal was randomly assigned across the treatment groups. The experiments were conducted during the animal's light cycle phase.
The following compounds and agents were used in these studies: • MK-801 (0.1 mg/kg; Sigma-Aldrich) was dissolved in saline and injected IP, 15 min prior to NOR training. The dose volume was 1 ml/kg.
Galantamine (1 mg/kg; Tocris) was dissolved in saline and injected IP, 15 minutes prior to training. The dose volume was 1 ml/kg.
Compound I-20 (0.03, 0.3 and 1 mg/kg) was formulated in vehicle (0.5% (w/w) methyl cellulose and 0.5% (w/w) Tween 80 in ultrapure water) and orally dosed 60 min prior to NOR training at 2 ml/kg dose volume.
The following groups were tested, with N=16 in each (One rat was removed from the Compound I-20-1 mg/kg-MK-801 group before test started due to a health issue): 1) Vehicle—Saline; 2) Vehicle—MK-801 0.1 mg/kg; 3) Galantamine 1 mg/kg—MK-801; 4) Compound I-20, 0.03 mg/kg—MK-801; 5) Compound I-20, 0.3 mg/kg—MK-801; and 6) Compound I-20, 1 mg/kg—MK-801
Compound I-14 (0.01, 0.1 and 1 mg/kg) was formulated as its Na+ Salt as a solution in MilliQ water and stored as frozen aliquots. The aliquots of compound solutions and compound vehicle were stored in −80° C. and freshly thawed on each testing day. The compound and vehicle were orally dosed 60 minutes prior to NOR training. The dose volume was 10 ml/kg.
The following groups were tested for Compound I-14, with N=16 in each: 1) Saline—MK-801 0.1 mg/kg; 2) Galantamine 1 mg/kg—MK-801; 3) Vehicle—Saline; 4) Vehicle—MK-801; 5) Compound I-14, 0.01 mg/kg—MK-801; 6) Compound I-14, 0.1 mg/kg—MK-801; and 7) Compound I-14, 1 mg/kg—MK-801
NOR test was conducted in an open-field arena (40×40 cm) placed in a sound-attenuated room under dimmed lighting. Each rat was tested separately, and care was taken to remove olfactory/taste cues by cleaning the arena and test objects with 70% alcohol between trials and rats. All training and testing trials were video-taped and scored by an observer blind to treatments.
On Days 1 and 2, rats were allowed to freely explore the arena (no objects inside) for a 5-minute habituation period. On Day 3 (training and testing day), rats were administered vehicle, saline and/or compound solution according to corresponding pretreatment, which is defined as time between injection and start of NOR training. Each animal was placed into the test arena in the presence of two identical objects. Each rat was placed in the arena facing the same direction at the same position, and the time spent actively exploring the objects during a 3-minute training period (T1) was recorded. The rat was returned to its home cage following training. NOR test (T2) was conducted 1 hour after T1. Each rat was placed back into the test arena in the presence of one familiar object and one novel object for 5 minutes, and the time spent exploring both objects was recorded. The presentation order and position of the objects (left/right) in T2 was randomized between rats to prevent bias from order or place preference. […]

Sprague-Dawley (SD) rats = assay: Sleep-wake pharmaco-EEG in telemeter-implanted rats; assay type: in vivo, rat
MPTP-lesioned macaque = assay: Cognitive effects in the chronic low dose MPTP-lesioned macaque model of Parkinson's disease; assay type: in vivo, cynomolgus macaques; settings: 3.0 mg/kg oral daily monotherapy, tested 2 hrs after administration

Row | Compound | effect on MAP (change from baseline and vehicle-adjusted) versus vehicle-treated rats [1] | concentration of cGMP in rat CSF versus vehicle-treated rats (cGMP; sodium salt, 1 mg/kg, two hours after dosing) | concentration of cGMP in rat CSF versus vehicle-treated rats (cGMP; sodium salt, 3 mg/kg, one and two hours after dosing) | concentration of cGMP in rat CSF versus vehicle-treated rats (cGMP; sodium salt, 10 or 30 mg/kg, 1, 2 and 6 hours postdose) | concentration of cGMP in rat CSF versus vehicle-treated rats (cGMP; sodium salt, all tested doses (1, 3, 10, 30 mg/kg), 1, 2 and 6 hours) | recognition index versus Vehicle-MK-801 group ([2]; 0-1 minute time range, 1 mg/kg PO (Na+ salt in MilliQ water) 60 min prior to training, P<0.01) | recognition index versus Vehicle-MK-801 group ([2]; 0-3 minute time range, 1 mg/kg PO (Na+ salt in MilliQ water) 60 min prior to training) | recognition index versus Vehicle-MK-801 group ([2]; 0-5 minute time range, 1 mg/kg PO (Na+ salt in MilliQ water) 60 min prior to training, P<0.05) | time in REM and NREM sleep (hypnograms) versus vehicle (A) group (Sprague-Dawley (SD) rats; high dose (30 mg/kg) PO) | time in Quiet Wake (hypnograms) (Sprague-Dawley (SD) rats; highest dose (30 mg/kg) PO) | SDR (discrimination reversal learning) performance (MPTP-lesioned macaque) | concentration of cGMP in rat CSF versus vehicle-treated rats (cGMP; 10 mg/kg PO, suspension in Tween/MC, six hours post-dose) | concentration of cGMP in rat CSF versus vehicle-treated rats (cGMP; 1, 3 and 10 mg/kg PO, suspension in Tween/MC, one and two hours after dosing) | recognition index versus Vehicle-MK-801 group ([2]; 0-1 min time range, 1 mg/kg PO in methyl cellulose/Tween 80, Ps<0.01) | recognition index versus Vehicle-MK-801 group ([2]; 0-3 min time range, 0.3 mg/kg PO in methyl cellulose/Tween 80) | recognition index versus Vehicle-MK-801 group ([2]; 0-3 min time range, 1 mg/kg PO in methyl cellulose/Tween 80, Ps<0.001) | recognition index versus Vehicle-MK-801 group ([2]; 0-5 min time range, 0.03 mg/kg PO in methyl cellulose/Tween 80) | recognition index versus Vehicle-MK-801 group ([2]; 0-5 min time range, 0.3 mg/kg PO in methyl cellulose/Tween 80, P<0.01) | recognition index versus Vehicle-MK-801 group ([2]; 0-5 min time range, 1 g/kg PO in methyl cellulose/Tween 80, Ps<0.001)
1 | Cc1cc(F)c(Cc2nc(-c3ncc(F)c(O)n3)cn3ccnc23)cc1F [Compound I-14, 5-fluoro-2-(8-(2,5-difluoro-4-methylbenzyl)imidazo[1,2-a]pyrazin-6-yl)pyrimidin-4-ol] | greater decrease in MAP; also recorded: lowered MAP from baseline and as adjusted from vehicle at 3, 10, and 30 mg/kg | significantly higher cGMP in CSF | significantly higher concentrations of cGMP in the CSF | significantly higher cGMP in the CSF | higher levels of cGMP in the CSF at all tested doses, but not at all timepoints tested | reversed the deficit | showed a trend (P<0.10) in reversing MK-801-induced memory deficit | significantly higher Recognition Index | notable decrease in REM and NREM | increase in Quiet Wake | significantly improved performance in the SDR paradigm | – | – | – | – | – | – | – | –
2 | Oc1nc(-c2cn3ccnc3c(Cc3cc(F)ccc3F)n2)ncc1F [Compound I-20, 5-fluoro-2-(8-(2,5-difluorobenzyl)imidazo[1,2-a]pyrazin-6-yl)pyrimidin-4-ol] | greater decrease in MAP; also recorded: lowered MAP at 1, 3, 10, and 30 mg/kg, both from baseline and as adjusted from vehicle | – | – | – | – | – | – | – | – | – | – | significantly higher cGMP in the CSF | no significant change | significantly higher recognition index | showed a trend (P<0.10) of reversing MK-801-induced memory deficits | significantly reversed MK-801-induced memory deficits | showed a trend (P<0.10) of reversing MK-801-induced memory deficits | significantly reversed MK-801-induced memory deficits | significantly reversed MK-801-induced memory deficits
